Assay results: article PMC12120064
Results are given in words; binding and its absence hold for the method and conditions named. In cells and extracts the contact can be indirect. Some results given as binding are weak or reduced against the parent protein; the word gives no strength.

Amino acid sequences for entries named in this document (tags omitted). Residues count along the entry.
UniProt P13688, residues 35-526: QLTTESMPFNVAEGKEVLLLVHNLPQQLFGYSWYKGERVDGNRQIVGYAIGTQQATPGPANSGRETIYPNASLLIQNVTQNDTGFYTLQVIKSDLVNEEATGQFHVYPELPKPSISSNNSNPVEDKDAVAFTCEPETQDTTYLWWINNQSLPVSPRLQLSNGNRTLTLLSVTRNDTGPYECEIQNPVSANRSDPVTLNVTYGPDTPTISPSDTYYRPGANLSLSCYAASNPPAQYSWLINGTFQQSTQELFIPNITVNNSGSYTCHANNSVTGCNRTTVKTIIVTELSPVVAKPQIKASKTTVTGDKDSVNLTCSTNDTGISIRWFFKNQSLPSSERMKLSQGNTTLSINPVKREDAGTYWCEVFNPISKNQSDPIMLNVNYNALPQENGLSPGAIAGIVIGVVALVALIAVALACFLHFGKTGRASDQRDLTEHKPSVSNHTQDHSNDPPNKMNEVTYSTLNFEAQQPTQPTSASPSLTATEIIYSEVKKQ
UniProt P40259, residues 29-229: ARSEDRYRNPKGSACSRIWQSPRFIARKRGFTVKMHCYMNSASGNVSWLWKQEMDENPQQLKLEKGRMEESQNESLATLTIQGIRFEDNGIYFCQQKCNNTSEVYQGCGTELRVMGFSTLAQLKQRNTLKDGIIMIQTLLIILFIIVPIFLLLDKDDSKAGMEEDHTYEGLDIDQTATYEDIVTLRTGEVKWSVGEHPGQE
UniProt P21333: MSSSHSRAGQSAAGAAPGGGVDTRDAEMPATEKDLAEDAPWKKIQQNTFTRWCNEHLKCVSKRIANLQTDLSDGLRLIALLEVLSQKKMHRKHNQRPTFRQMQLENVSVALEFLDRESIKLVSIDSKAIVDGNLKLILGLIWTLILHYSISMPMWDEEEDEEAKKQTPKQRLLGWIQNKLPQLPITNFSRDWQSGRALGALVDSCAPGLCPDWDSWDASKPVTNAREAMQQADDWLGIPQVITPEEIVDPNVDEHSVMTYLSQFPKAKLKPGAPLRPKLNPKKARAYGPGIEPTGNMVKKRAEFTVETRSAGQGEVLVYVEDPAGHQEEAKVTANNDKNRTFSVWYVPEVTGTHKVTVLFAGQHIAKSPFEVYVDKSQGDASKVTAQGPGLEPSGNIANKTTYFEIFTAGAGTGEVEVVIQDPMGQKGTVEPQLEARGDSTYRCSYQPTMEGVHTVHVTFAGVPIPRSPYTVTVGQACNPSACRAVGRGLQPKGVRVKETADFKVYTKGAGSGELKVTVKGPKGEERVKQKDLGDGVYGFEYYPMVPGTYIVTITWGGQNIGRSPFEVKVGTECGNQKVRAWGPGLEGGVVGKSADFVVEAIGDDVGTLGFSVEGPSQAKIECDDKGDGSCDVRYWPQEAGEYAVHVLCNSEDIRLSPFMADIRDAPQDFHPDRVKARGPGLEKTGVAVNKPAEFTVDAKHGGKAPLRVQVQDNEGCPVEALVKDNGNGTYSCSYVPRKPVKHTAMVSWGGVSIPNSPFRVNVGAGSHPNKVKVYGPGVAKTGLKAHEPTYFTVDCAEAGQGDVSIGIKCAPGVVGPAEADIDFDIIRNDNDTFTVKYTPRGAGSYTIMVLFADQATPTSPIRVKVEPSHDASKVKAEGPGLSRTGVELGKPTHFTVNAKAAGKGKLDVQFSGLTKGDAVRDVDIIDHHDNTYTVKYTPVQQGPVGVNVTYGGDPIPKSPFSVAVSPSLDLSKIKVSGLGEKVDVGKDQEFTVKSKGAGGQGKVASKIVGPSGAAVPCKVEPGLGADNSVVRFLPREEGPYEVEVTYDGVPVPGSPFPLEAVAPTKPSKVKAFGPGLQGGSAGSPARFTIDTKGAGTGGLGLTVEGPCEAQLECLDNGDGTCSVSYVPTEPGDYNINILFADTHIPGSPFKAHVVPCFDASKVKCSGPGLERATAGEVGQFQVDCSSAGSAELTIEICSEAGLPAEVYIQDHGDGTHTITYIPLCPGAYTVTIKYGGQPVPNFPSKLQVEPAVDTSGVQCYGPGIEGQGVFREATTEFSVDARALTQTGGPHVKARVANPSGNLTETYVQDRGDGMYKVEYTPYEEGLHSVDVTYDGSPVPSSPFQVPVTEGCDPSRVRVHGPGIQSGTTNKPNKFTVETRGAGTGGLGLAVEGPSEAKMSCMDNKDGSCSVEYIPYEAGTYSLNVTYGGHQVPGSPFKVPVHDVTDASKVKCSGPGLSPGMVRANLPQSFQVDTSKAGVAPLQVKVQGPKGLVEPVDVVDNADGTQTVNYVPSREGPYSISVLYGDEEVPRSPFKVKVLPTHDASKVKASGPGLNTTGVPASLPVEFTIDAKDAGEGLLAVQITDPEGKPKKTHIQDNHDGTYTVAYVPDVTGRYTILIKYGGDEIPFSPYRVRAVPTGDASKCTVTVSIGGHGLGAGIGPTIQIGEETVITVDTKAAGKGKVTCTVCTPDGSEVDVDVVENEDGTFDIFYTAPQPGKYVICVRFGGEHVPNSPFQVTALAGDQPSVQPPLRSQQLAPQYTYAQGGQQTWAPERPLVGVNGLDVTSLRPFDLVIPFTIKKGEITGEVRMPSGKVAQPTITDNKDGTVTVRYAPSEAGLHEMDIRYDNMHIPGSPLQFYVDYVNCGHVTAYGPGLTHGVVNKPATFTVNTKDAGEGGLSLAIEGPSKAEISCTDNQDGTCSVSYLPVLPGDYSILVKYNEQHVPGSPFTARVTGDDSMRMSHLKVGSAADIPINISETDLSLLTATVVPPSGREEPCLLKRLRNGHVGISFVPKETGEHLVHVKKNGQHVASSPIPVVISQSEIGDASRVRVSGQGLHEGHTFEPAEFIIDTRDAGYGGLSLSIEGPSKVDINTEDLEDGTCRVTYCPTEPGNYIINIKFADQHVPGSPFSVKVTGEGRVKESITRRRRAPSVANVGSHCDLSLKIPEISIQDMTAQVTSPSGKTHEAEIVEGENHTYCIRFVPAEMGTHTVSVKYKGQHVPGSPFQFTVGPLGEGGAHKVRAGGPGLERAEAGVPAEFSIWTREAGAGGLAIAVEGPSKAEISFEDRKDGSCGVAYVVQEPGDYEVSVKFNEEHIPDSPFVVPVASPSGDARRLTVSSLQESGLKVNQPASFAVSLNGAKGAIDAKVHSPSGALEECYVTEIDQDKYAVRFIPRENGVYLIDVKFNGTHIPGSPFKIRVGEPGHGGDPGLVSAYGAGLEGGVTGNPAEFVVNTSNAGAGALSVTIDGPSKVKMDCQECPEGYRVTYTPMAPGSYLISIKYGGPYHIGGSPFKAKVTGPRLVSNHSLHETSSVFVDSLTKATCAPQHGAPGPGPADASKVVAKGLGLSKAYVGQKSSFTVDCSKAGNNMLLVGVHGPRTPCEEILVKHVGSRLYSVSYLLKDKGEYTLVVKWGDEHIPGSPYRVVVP

Columns and labels:
[1] = biological target: full-length CEACAM1-4L (wild type, reintroduced) (UniProt P13688); assay: proximity ligation; CEACAM1-knockout JEKO-1 cells reconstituted with 4L, Y493F/Y520F or ΔN CEACAM1, fixed and permeabilised after BCR stimulation with anti-IgM; Duolink red
[2] = biological target: full-length CEACAM1-4L (wild type, reintroduced) (UniProt P13688); assay: co-IP; CEACAM1-knockout JEKO-1 cells reconstituted with 4L, Y493F/Y520F or ΔN CEACAM1, stimulated with 2 μg/ml anti-IgM for the indicated times; CEACAM1 immunoprecipitated, immunoblot; IP buffer 50 mM Tris-HCl, 150 mM NaCl, 1% Triton X-100, 2 mM EDTA

Row | binding [1] | binding [2] | Substance
1 | binds | binds | CD79B (from UniProt P40259 29-229)
2 |  | binds | filamin A (FLNA) (from UniProt P21333 1-2647)
